The record followed here is PubChem BioAssay AID330 (DTP/NCI, 2004).

The subject of the experiment is P388 leukemia ip, CD2F1 mice, survival T/C. Nature of the experiment: NCI In Vivo Anticancer Drug Screen. Data for tumor model P388 Leukemia (intraperitoneal) in CD2F1 (CDF1) mice. The conditions noted are these: T/C endpoint: median survival time, higher T/C = longer survival.
The mark [1] stands for this setting: dose: 200.0 mg/kg/injection, schedule: Q04DX003 (ip), vehicle: Klucel (hydroxypropylcellulose) (HPC).
[2] abbreviates: dose: 400.0 mg/kg/injection, schedule: Q04DX003 (ip), vehicle: Klucel (hydroxypropylcellulose) (HPC).
Setting [3] is: dose: 12.5 mg/kg/injection, schedule: Q01DX005 (ip), vehicle: Klucel (hydroxypropylcellulose) (HPC).
Setting [4] is: dose: 50.0 mg/kg/injection, schedule: Q01DX005 (ip), vehicle: Klucel (hydroxypropylcellulose) (HPC).
Where [5] appears, read: dose: 200.0 mg/kg/injection, schedule: Q01DX005 (ip), vehicle: Klucel (hydroxypropylcellulose) (HPC).
Setting [6] is: dose: 200.0 mg/kg/injection, schedule: Q01DX009 (ip), vehicle: saline.
The mark [7] stands for this setting: dose: 200.0 mg/kg/injection, schedule: Q01DX005 (ip), vehicle: saline with Tween-80.
[8] abbreviates: dose: 100.0 mg/kg/injection, schedule: Q01DX009 (ip), vehicle: saline with Tween-80.
The mark [9] stands for this setting: dose: 50.0 mg/kg/injection, schedule: Q01DX009 (ip), vehicle: saline.
Setting [10] is: dose: 50.0 mg/kg/injection, schedule: Q01DX009 (ip), vehicle: saline with Tween-80.
Setting [11] is: dose: 50.0 mg/kg/injection, schedule: Q01DX005 (ip), vehicle: saline with Tween-80.
The mark [12] stands for this setting: dose: 100.0 mg/kg/injection, schedule: Q01DX005 (ip), vehicle: saline with Tween-80.

The list shows only some results of the screen, not a fair sample: it gathers tests that were run many times, whatever their T/C, doses with no T/C, and many T/C values between a quarter and a half above the control. Other doses and runs of a compound stand elsewhere. T/C: endpoint of the treated group in % of that of the vehicle group. Some entries give survivors of the animals treated and no T/C: the source holds a T/C of zero for them, seemingly a mark for toxic or unscored doses. Some doses without a T/C left all or most animals alive at the check, yet need not have been tolerated: survival well below the control is almost never listed, so the zero probably covers shortened survival too. Survivors were counted at the toxicity check, usually on the fifth day, unless a day is given; later deaths do not show. Schedules are NCI's codes, read here as Q, the interval in days (D) or hours (H), X, the number of doses. Some doses were run more than once; the results are listed from low to high. For survival time, this PubChem deposit counts one and a half times the control or more as active, and values a quarter to a half above the control carry no call in these data; other NCI protocols may use other cut-offs. Some T/C values are followed by the survivors on the day toxicity was checked, most often the fifth; where none is given, no animal had died by that day.

On to `NC(=S)N/N=C/c1ccncn1`, for which the survivor count runs as follows: (dose: 25.0 mg/kg/injection, schedule: Q04DX003 (ip), vehicle: saline with Tween-80) 3 of 6; (dose: 50.0 mg/kg/injection, schedule: Q04DX003 (ip), vehicle: saline with Tween-80) 3 of 6; (dose: 75.0 mg/kg/injection, schedule: Q04DX003 (ip), vehicle: Klucel (hydroxypropylcellulose) (HPC)) 5 of 6; (dose: 100.0 mg/kg/injection, schedule: Q04DX003 (ip), vehicle: Klucel (hydroxypropylcellulose) (HPC)) 1 of 6; under setting [1], 0 of 6; under setting [2], 0 of 6.

Take `C[CH2][Sn]([CH2]C)([n]1c2ccccc2c2c(C)c3cnccc3c(C)c21)[n]1c2ccccc2c2c(C)c3cnccc3c(C)c21`: the T/C is, setting by setting: (dose: 3.12 mg/kg/injection, schedule: Q01DX005 (ip), vehicle: Klucel (hydroxypropylcellulose) (HPC)) 137 and 140 % of control; (dose: 6.25 mg/kg/injection, schedule: Q01DX005 (ip), vehicle: Klucel (hydroxypropylcellulose) (HPC)) 143 % of control [5 of 6 alive]; under setting [3], 141 % of control. The survivor count reads like this: under setting [3], 1 of 6; under setting [4], 2 of 6; (dose: 100.0 mg/kg/injection, schedule: Q01DX005 (ip), vehicle: Klucel (hydroxypropylcellulose) (HPC)) 0 of 6; under setting [5], 0 of 6.

With `CN(C)CCOc1ccccn1`, the survivor count runs as follows: under setting [6], 3 of 6; (dose: 400.0 mg/kg/injection, schedule: Q01DX009 (ip), vehicle: saline) 0 of 6.

Take `O=C1c2ccccc2CCC1Br` (stereo not given): the survivor count is 6 of 6 (dose: 3.12 mg/kg/injection, schedule: Q01DX009 (ip), vehicle: DMSO) and 4 of 5 (dose: 25.0 mg/kg/injection, schedule: Q01DX009 (ip), vehicle: DMSO).

Turning to `CCOC(=O)N1CCc2cc3c(cc2C1Cc1ccc(OC)c(OC)c1CCl)OCO3` (stereo not given), the survivor count under setting [7] was 6 of 6.

For `Cn1cnc([N+](=O)[O-])c1Sc1nc(N)nc2nc[nH]c12`, the T/C is 127 % of control (dose: 16.5 mg/kg/injection, schedule: Q01DX009 (ip), vehicle: saline with Tween-80) and 136 % of control (dose: 25.0 mg/kg/injection, schedule: Q01DX009 (ip), vehicle: saline sonified). The survivor count is listed as 6 of 6 (dose: 37.5 mg/kg/injection, schedule: Q01DX009 (ip), vehicle: saline with Tween-80); 6 of 6 (dose: 100.0 mg/kg/injection, schedule: Q01DX009 (ip), vehicle: saline sonified); 6 of 6 under setting [1]; 6 of 6 under setting [2].

For `CC(Nc1ccc(Br)cc1[N+](=O)[O-])C(=O)O` (stereo not given), the T/C under setting [8] was 136 % of control.

On to `CCC1(c2ccccc2)N=C1N(C)C` (stereo not given), for which the T/C under setting [9] was 96 and 122 % of control. Moreover, the survivor count reads like this: under setting [9], 0 of 6; (dose: 100.0 mg/kg/injection, schedule: Q01DX009 (ip), vehicle: saline) 0 of 6 and 6 of 6; under setting [6], 0 of 6.

As for `CN(C)c1cc(O)c(-n2c3cc(=O)c(N(C)C)cc-3nc3ccccc32)cc1O`, the survivor count is, setting by setting: under setting [10], 2 of 6; under setting [6], 0 of 6.

For `CC1=CC(=O)[C@@H](O)[C@]2(C)[C@H]3[C@@]4(O)OC[C@]35[C@H]([C@@H](CO)[C@H]4O)[C@@H](OC3OC(CO)C(O)C(O)C3O)C(=O)O[C@@H]5C[C@@H]12` (stereo not given in full), the survivor count by setting is: (dose: 3.75 mg/kg/injection, schedule: Q01DX005 (ip), vehicle: Klucel (hydroxypropylcellulose) (HPC)) 2 of 6; (dose: 7.5 mg/kg/injection, schedule: Q01DX005 (ip), vehicle: Klucel (hydroxypropylcellulose) (HPC)) 4 of 6; (dose: 15.0 mg/kg/injection, schedule: Q01DX005 (ip), vehicle: Klucel (hydroxypropylcellulose) (HPC)) 1 of 6.

On to `C[C@]12CC[C@H]3C(=CCc4cc(O)ccc43)[C@@H]1C/C(=N\O)C2=O`, for which, where the note is “dose: 400.0 mg/kg/injection, schedule: Q01DX009 (ip), vehicle: saline with Tween-80”, the T/C was 135 % of control.

`COc1ccc2nc(N/N=C/c3ccccn3)cc(C)c2c1`: the survivor count is 6 of 6 under setting [11]; 1 of 6 under setting [12]; 0 of 6 and 1 of 6 under setting [7]. Also, under setting [12], the T/C was 125 % of control [5 of 6 alive].

Turning to `O=C1CCC(=O)N1SC(Cl)(Cl)Cl`, the survivor count is given as 2 of 5 under setting [11], 0 of 5 under setting [12] and 0 of 5 under setting [7].

For the compound `CC1(C)CC23C4COC(=O)C2CCC1C3CC4=O` (stereo not given), the survivor count was 6 of 6 (dose: 24.0 mg/kg/injection, schedule: Q01DX009 (ip), vehicle: DMSO) and 5 of 6 (dose: 96.0 mg/kg/injection, schedule: Q01DX009 (ip), vehicle: DMSO).

For the compound `O=C1Cc2ccccc2C(O)=C1c1cnccn1`, the survivor count is 3 of 6 (dose: 120.0 mg/kg/injection, schedule: Q01DX005 (ip), vehicle: saline with Tween-80) and 0 of 6 (dose: 240.0 mg/kg/injection, schedule: Q01DX005 (ip), vehicle: saline with Tween-80).

As to `CCN1c2ccccc2C(Cl)(c2ccc(N(C)C)cc2)c2ccccc21`, the T/C (dose: 25.0 mg/kg/injection, schedule: Q01DX009 (ip), vehicle: saline) is 129 % of control.

As to `NC(=O)Nc1cc2[nH]c(=O)oc2cc1Cl`, the survivor count under setting [4] is reported as 6 of 6 and the survivor count under setting [5] is 1 of 6.

Turning to `CCOc1cc(/C=N\Nc2nncn2N)c(C)cc1N(CCCl)CCCl`, the survivor count is 6 of 6 (dose: 100.0 mg/kg/injection, schedule: Q04DX003 (ip), vehicle: saline sonified) and 2 of 6 (dose: 200.0 mg/kg/injection, schedule: Q04DX003 (ip), vehicle: saline sonified).

Take `COc1cccc2c1C(=O)c1c(O)c3c(c(O)c1C2=O)C[C@@](O)(C(C)=O)C[C@@H]3OC1CC(N=C(N)CCSSCCC(N)=NC2CC(O[C@H]3C[C@](O)(C(C)=O)Cc4c(O)c5c(c(O)c43)C(=O)c3c(OC)cccc3C5=O)OC(C)C2O)C(O)C(C)O1` (stereo not given in full): the T/C is, setting by setting: (dose: 12.5 mg/kg/injection, schedule: Q04DX003 (ip), vehicle: distilled water + Tween-80) 135 % of control; (dose: 25.0 mg/kg/injection, schedule: Q04DX003 (ip), vehicle: distilled water + Tween-80) 134 % of control; (dose: 50.0 mg/kg/injection, schedule: Q04DX003 (ip), vehicle: distilled water + Tween-80) 141 % of control.

Consider `CCCCNCC(O)c1cc2c(Cl)cc(Cl)cc2c2cc(C(F)(F)F)ccc12` (stereo not given), for which the survivor count is, setting by setting: under setting [10], 6 of 6; under setting [8], 1 of 6; (dose: 200.0 mg/kg/injection, schedule: Q01DX009 (ip), vehicle: saline with Tween-80) 0 of 6.

On to `CC(=O)NNc1ccc(Cl)cc1[N+](=O)[O-]`, for which, under “dose: 200.0 mg/kg/injection, schedule: Q01DX009 (ip), vehicle: Klucel (hydroxypropylcellulose) (HPC)”, the survivor count was 5 of 6.

`O=C1CC2(C(=O)N1CN1CCOCC1)c1ccccc1-c1ccccc12`: the T/C by setting is: (dose: 200.0 mg/kg/injection, schedule: Q04DX002 (ip), vehicle: Klucel (hydroxypropylcellulose) (HPC)) 137 % of control; (dose: 400.0 mg/kg/injection, schedule: Q04DX002 (ip), vehicle: Klucel (hydroxypropylcellulose) (HPC)) 136 and 137 % of control [5 of 6 alive].
